Experimental data from PMC6179088.

Sequences of proteins named here, by UniProt entry; tags and fusion partners are left off. Residues count along the entry.
UniProt Q13308, 31-1070: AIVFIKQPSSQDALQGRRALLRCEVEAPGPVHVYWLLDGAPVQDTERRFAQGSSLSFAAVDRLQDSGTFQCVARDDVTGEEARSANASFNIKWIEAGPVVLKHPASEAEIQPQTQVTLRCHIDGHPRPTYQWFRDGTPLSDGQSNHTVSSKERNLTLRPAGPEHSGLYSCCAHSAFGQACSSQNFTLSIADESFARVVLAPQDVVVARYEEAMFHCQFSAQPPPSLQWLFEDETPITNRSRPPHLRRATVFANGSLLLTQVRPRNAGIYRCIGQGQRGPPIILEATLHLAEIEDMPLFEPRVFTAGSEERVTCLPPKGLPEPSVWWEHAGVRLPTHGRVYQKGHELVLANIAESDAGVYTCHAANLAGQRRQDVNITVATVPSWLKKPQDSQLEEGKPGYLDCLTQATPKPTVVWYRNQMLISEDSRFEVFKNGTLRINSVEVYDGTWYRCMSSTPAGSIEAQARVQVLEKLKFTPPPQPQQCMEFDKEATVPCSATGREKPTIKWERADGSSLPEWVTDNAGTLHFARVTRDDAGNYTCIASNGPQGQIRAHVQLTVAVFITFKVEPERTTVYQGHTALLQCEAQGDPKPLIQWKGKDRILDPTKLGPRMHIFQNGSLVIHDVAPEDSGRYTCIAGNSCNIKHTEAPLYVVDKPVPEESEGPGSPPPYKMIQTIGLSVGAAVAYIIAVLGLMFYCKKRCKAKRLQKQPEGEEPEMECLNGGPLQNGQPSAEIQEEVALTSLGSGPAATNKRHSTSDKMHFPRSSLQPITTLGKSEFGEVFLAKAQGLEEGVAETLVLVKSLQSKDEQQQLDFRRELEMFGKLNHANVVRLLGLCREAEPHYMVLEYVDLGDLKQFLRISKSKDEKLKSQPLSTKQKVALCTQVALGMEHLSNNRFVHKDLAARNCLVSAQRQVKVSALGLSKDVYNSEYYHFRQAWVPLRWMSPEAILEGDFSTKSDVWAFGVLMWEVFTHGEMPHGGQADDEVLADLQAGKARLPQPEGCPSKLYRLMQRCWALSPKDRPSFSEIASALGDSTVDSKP

Target: PTK7 (membrane protein on HeLa cells) (UniProt Q13308)
Assay: confocal fluorescence imaging of HeLa cells (TAMRA recovery on target binding)
Details: aptamer conjugated to ZrMOF nanoparticles, 25 ug/mL, 2 h, random library pool conjugate gave negligible fluorescence; 5' phosphate (printed H2PO3), coordinated to ZrMOF nanoparticle; HeLa cells in complete DMEM (10% FBS), 37 °C, 5% CO2, 2 h, 25 ug/mL nanoparticles, then washed twice; protein on the cell surface; label: 3' TAMRA; folded or branched DNA

“TTTTTTTTTTATCTAACTGCTGCGCCGCCGGGAAAATACTGTACGGTTAGA”: binds.

For at least one entry, the source does not settle the construct or the ends of the probe. Where cells or extracts were used, other partners may take part. At least one verdict was read from the data and is not stated in words by the source.
